The assay addresses T1, Deltex3 (human (endogenous in PTC cells)) (UniProt Q8N9I9).
T1 sequence: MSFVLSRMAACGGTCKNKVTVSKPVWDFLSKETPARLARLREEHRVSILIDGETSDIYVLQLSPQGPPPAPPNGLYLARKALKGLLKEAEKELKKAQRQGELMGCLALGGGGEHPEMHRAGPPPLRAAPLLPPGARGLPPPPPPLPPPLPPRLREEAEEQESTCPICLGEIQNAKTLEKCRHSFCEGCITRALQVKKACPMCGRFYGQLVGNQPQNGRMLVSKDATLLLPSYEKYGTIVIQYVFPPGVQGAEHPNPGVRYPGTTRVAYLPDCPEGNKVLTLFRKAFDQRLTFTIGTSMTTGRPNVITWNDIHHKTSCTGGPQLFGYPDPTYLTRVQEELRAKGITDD
The assay can be described thus: affinity purification with mass spectrometry; IP-MS: cell lysate in IP lysis buffer, anti-DTX3 antibody or normal IgG overnight at 4 °C, Protein A/G PLUS-Agarose beads, 4 washes, eluted in SDT buffer for MS.

Amino acid sequences for entries named in this document (tags omitted).
UniProt Q00610: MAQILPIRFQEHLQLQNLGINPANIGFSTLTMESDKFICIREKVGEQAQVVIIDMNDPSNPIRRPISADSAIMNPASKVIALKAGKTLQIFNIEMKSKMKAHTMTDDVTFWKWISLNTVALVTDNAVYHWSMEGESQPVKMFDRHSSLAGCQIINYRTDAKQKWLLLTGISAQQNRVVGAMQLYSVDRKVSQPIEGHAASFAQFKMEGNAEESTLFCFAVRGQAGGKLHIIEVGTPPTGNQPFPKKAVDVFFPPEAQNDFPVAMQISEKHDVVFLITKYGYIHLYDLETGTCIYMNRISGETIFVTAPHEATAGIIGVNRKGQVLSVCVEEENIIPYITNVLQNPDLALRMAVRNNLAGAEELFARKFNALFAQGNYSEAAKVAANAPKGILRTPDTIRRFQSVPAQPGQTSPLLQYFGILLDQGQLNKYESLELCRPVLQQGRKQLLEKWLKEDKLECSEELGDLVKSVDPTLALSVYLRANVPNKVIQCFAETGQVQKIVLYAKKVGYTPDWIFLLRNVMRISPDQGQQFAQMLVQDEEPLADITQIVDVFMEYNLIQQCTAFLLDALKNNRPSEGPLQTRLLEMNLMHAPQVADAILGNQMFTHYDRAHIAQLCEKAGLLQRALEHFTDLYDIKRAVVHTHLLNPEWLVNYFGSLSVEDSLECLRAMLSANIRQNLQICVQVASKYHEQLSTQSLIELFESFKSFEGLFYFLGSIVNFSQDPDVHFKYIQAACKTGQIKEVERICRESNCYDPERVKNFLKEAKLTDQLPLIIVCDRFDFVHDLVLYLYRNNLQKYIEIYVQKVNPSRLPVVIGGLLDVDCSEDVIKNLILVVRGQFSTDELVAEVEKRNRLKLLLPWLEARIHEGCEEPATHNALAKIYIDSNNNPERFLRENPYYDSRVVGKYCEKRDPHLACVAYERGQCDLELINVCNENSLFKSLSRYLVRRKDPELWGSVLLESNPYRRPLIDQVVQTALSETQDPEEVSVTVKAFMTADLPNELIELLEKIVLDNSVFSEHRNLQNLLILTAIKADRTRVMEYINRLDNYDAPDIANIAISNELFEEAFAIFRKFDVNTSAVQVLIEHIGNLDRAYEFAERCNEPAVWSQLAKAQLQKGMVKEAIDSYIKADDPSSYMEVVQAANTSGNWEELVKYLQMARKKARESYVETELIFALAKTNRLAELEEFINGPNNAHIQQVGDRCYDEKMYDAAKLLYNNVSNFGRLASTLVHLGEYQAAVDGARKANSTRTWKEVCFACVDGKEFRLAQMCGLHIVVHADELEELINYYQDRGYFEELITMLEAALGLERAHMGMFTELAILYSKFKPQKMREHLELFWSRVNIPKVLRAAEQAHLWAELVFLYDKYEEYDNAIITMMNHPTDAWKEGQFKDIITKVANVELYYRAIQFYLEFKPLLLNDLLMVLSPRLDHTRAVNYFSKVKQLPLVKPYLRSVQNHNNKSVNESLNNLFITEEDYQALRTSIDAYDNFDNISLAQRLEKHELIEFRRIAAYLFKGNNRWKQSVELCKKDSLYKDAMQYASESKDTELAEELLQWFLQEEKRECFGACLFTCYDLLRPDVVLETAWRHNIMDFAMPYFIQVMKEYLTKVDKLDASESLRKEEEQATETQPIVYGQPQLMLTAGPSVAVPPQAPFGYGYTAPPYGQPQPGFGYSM
UniProt P19474: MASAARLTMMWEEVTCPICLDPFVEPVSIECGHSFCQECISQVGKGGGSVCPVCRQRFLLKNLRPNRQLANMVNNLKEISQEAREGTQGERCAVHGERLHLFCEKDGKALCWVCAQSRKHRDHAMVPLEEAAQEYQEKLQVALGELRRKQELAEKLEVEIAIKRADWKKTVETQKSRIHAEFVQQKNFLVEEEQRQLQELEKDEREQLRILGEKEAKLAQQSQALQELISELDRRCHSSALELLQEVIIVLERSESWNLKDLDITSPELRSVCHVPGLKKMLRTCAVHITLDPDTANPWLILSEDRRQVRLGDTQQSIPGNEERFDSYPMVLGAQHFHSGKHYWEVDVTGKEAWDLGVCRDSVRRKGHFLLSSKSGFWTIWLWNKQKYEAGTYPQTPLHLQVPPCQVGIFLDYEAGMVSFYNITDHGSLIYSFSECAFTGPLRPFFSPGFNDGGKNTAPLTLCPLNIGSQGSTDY
UniProt O75369: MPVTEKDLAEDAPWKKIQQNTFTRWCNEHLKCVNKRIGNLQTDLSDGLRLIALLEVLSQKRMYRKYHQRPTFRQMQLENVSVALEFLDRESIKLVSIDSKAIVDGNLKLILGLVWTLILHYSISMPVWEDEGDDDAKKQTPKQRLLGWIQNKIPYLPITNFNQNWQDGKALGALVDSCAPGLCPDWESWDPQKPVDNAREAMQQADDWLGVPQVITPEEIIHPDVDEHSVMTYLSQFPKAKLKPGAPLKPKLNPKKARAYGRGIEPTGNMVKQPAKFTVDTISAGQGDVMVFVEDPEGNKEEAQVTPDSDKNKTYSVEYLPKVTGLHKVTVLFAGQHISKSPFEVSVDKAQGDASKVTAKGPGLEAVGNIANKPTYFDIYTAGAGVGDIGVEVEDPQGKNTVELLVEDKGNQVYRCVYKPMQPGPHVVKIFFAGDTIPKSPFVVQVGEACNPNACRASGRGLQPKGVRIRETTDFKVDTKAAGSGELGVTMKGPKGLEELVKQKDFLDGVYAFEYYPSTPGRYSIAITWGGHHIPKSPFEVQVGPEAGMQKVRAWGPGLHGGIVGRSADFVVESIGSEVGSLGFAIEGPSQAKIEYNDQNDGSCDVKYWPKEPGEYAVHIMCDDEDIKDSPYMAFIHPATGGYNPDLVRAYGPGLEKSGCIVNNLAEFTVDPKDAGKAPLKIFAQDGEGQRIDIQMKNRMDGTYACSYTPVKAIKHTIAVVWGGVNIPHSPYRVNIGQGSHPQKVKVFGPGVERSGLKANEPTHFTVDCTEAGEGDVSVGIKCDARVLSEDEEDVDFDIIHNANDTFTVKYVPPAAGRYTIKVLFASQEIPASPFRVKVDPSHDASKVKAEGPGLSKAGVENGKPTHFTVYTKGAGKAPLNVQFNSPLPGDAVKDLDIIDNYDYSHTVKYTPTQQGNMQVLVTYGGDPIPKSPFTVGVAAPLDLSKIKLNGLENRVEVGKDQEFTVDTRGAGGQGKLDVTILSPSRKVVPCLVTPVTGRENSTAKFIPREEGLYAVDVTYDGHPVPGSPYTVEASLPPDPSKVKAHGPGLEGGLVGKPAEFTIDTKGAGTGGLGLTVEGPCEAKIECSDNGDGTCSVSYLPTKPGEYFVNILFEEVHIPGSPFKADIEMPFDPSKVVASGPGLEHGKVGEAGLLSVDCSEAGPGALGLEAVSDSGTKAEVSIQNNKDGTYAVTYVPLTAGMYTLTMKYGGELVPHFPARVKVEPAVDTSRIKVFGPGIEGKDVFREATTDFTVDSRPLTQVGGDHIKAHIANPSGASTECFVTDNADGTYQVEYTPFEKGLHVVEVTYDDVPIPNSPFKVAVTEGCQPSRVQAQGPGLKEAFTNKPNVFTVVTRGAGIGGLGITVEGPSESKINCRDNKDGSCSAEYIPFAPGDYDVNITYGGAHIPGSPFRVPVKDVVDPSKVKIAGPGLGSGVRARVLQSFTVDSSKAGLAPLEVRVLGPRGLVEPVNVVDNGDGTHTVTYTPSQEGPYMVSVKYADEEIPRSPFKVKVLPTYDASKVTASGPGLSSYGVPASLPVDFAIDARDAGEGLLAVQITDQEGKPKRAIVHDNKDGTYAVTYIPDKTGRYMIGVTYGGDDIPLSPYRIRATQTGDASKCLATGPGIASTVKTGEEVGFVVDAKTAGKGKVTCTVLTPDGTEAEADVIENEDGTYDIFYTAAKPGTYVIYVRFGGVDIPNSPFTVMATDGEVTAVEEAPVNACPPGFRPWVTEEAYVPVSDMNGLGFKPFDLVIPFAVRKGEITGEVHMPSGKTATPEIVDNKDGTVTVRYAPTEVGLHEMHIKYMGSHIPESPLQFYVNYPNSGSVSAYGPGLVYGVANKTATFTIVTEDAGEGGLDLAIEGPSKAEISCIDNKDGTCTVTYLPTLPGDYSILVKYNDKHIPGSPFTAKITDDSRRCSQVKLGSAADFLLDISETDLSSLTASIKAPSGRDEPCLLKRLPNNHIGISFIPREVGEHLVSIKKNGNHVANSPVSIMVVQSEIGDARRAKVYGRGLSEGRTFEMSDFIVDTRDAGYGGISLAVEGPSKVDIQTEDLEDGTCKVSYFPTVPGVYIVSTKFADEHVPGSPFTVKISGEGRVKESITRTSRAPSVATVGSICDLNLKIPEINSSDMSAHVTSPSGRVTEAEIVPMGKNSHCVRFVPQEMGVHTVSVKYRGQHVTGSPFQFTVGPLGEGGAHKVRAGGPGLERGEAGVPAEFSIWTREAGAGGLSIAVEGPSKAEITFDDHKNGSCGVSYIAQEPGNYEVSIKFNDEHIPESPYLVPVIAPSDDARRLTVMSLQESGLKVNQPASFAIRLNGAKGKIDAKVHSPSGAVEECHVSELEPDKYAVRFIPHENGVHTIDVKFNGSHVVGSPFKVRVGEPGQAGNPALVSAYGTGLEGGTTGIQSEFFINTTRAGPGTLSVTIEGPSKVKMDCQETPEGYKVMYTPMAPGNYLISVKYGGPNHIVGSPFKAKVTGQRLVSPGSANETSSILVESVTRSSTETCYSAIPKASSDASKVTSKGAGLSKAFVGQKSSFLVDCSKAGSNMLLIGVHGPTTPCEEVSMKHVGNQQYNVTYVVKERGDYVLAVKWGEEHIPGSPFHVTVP
UniProt P31943: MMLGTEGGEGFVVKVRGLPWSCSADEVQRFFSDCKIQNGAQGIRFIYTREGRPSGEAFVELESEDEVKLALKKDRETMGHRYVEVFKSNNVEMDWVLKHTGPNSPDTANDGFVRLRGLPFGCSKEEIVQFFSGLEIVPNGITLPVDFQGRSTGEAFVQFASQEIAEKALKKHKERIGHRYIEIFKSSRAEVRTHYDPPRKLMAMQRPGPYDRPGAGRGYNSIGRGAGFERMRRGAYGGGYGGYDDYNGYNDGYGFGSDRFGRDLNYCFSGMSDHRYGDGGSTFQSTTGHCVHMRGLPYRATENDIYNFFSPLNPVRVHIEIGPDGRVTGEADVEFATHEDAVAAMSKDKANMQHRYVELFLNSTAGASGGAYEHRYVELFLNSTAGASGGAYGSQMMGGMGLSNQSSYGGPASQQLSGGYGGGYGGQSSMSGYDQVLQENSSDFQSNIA
UniProt P14649: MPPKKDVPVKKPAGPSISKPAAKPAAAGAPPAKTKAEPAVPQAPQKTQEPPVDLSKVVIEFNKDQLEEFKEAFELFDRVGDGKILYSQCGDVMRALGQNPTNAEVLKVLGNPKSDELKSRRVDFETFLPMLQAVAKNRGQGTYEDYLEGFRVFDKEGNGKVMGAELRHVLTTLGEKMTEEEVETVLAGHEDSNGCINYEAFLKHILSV
UniProt P38159: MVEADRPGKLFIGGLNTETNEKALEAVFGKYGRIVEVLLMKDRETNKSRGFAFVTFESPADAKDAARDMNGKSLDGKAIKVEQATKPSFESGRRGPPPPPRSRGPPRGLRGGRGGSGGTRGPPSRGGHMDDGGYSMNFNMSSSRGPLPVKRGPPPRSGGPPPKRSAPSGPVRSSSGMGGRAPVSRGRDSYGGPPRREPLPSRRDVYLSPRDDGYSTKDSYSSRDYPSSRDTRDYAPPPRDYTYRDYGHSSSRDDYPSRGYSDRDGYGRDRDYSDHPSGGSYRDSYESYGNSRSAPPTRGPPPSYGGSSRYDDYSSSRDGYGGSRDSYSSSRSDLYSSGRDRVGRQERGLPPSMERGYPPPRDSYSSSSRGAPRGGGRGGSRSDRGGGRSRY
UniProt P13010: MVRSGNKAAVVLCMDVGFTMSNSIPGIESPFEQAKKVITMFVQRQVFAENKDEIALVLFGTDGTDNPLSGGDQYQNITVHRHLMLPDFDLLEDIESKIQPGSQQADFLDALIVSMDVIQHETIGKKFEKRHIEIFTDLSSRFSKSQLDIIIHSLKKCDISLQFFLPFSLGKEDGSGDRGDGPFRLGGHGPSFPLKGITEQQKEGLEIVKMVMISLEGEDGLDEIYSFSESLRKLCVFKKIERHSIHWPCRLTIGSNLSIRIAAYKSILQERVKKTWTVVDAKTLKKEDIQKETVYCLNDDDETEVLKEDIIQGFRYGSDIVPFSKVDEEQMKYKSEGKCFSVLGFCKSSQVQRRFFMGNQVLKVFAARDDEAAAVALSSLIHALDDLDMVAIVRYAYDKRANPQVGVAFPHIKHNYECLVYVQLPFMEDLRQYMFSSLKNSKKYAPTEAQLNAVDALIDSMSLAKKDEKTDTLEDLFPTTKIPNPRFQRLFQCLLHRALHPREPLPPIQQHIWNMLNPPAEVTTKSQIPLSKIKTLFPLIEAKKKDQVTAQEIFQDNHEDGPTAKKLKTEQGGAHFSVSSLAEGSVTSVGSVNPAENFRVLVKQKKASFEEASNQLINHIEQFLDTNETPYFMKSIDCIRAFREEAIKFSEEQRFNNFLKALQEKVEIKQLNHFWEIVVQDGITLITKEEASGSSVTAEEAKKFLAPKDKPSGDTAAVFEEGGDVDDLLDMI

Results are given in words; binding and its absence hold for the method and conditions named. Binding seen in cells or lysates may run through a third protein. A yes stands for co-enrichment or nearness to the bait. Other partners may have been found. Tags and fused reporters may be left off the sequences shown.

On to “ATP synthase subunit alpha, mitochondrial (from UniProt P25705 44-553)”, for which the binding result is recorded as “binds”.

Turning to “ATP synthase subunit beta (from UniProt P06576)”, the binding result is “binds”.

For the molecule “Clathrin heavy chain 1 (from UniProt Q00610 1-1675)”, the binding entry is recorded as “binds”.

Turning to “DNA-dependent protein kinase catalytic subunit (from UniProt P78527 1-4128)”, the binding result is “binds”.

For “E3 ubiquitin-protein ligase TRIM21 (from UniProt P19474 1-475)”, the binding entry is “binds”.

As to Filamin A (from UniProt P21333 1-2647), the binding entry is reported as “binds”.

Turning to Filamin-B (from UniProt O75369 1-2602), the binding entry is “binds”.

Take Filamin-C (from UniProt Q14315 1-2725): the binding entry is recorded as “binds”.

Regarding “Heat shock protein HSP 90-alpha (from UniProt P07900 1-732)”, the binding entry is listed as “binds”.

Regarding “Heterogeneous nuclear ribonucleoprotein H (from UniProt P31943 1-449)”, the binding entry is “binds”.

“Myosin light chain 6B (from UniProt P14649 1-208)”: the binding result was “binds”.

With “Neuroblast differentiation-associated protein AHNAK (from UniProt Q09666 1-5890)”, the binding entry is reported as “binds”.

As for “Poly [ADP-ribose] polymerase 1 (from UniProt P09874)”, the binding result is recorded as “binds”.

As to Profilin (from UniProt P35080 1-140), the binding result is “binds”.

As to “RNA-binding motif protein, X chromosome (from UniProt P38159 1-391)”, the binding result is “binds”.

As to “Ras GTPase-activating-like protein IQGAP1 (from UniProt P46940 1-1657)”, the binding result is “binds”.

In the case of “Spectrin beta chain, non-erythrocytic 1 (from UniProt Q01082 1-2364)”, the binding result is reported as “binds”.

With “Supervillin (from UniProt O95425 1-2214)”, the binding entry is given as “binds”.

Regarding “Unconventional myosin-Va (from UniProt Q9Y4I1 1-1855)”, the binding entry is reported as “binds”.

On to “X-ray repair cross-complementing protein 5 (from UniProt P13010 1-732)”, for which the binding entry was “binds”.

B1: Phosphate carrier protein, mitochondrial (protein, UniProt Q00325 50-362)
chain: AVEEQYSCDYGSGRFFILCGLGGIISCGTTHTALVPLDLVKCRMQVDPQKYKGIFNGFSVTLKEDGVRGLAKGWAPTFLGYSMQGLCKFGFYEVFKVLYSNMLGEENTYLWRTSLYLAASASAEFFADIALAPMEAAKVRIQTQPGYANTLRDAAPKMYKEEGLKAFYKGVAPLWMRQIPYTMMKFACFERTVEALYKFVVPKPRSECSKPEQLVVTFVAGYIAGVFCAIVSHPADSVVSVLNKEKGSSASLVLKRLGFKGVWKGLFARIIMIGTLTALQWFIYDSVKVYFRLPRPPPPEMPESLKKKLGLTQ
B1: the binding result is listed as “binds”.

B2: Glucosidase, alpha neutral AB, isoform CRA_b (protein, UniProt Q14697 29-944)
chain: ITLAVDRSNFKTCEESSFCKRQRSIRPGLSPYRALLDSLQLGPDSLTVHLIHEVTKVLLVLELQGLQKNMTRFRIDELEPRRPRYRVPDVLVADPPIARLSVSGRDENSVELTMAEGPYKIILTARPFRLDLLEDRSLLLSVNARGLLEFEHQRAPRVSQGSKDPAEGDGAQPEETPRDGDKPEETQGKAEKDEPGAWEETFKTHSDSKPYGPMSVGLDFSLPGMEHVYGIPEHADNLRLKVTEGGEPYRLYNLDVFQYELYNPMALYGSVPVLLAHNPHRDLGIFWLNAAETWVDISSNTAGKTLFGKMMDYLQGSGETPQTDVRWMSETGIIDVFLLLGPSISDVFRQYASLTGTQALPPLFSLGYHQSRWNYRDEADVLEVDQGFDDHNLPCDVIWLDIEHADGKRYFTWDPSRFPQPRTMLERLASKRRKLVAIVDPHIKVDSGYRVHEELRNLGLYVKTRDGSDYEGWCWPGSAGYPDFTNPTMRAWWANMFSYDNYEGSAPNLFVWNDMNEPSVFNGPEVTMLKDAQHYGGWEHRDVHNIYGLYVHMATADGLRQRSGGMERPFVLARAFFAGSQRFGAVWTGDNTAEWDHLKISIPMCLSLGLVGLSFCGADVGGFFKNPEPELLVRWYQMGAYQPFFRAHAHLDTGRREPWLLPSQHNDIIRDALGQRYSLLPFWYTLLYQAHREGIPVMRPLWVQYPQDVTTFNIDDQYLLGDALLVHPVSDSGAHGVQVYLPGQGEVWYDIQSYQKHHGPQTLYLPVTLSSIPVFQRGGTIVPRWMRVRRSSECMKDDPITLFVALSPQGTAQGELFLDDGHTFNYQTRQEFLLRRFSFSGNTLVSSSADPEGHFETPIWIERVVIIGAGKPAAVVLQTKGSPESRLSFQHDPETSVLVLRKPGINVASDWSIHLR
Regarding B2, the binding result was “binds”.

B3: Peroxiredoxin (protein, UniProt V9HW35 1-162)
chain: MAPIKVGDAIPAVEVFEGEPGNKVNLAELFKGKKGVLFGVPGAFTPGCSKTHLPGFVEQAEALKAKGVQVVACLSVNDAFVTGEWGRAHKAEGKVRLLADPTGAFGKETDLLLDDSLVSIFGNRRLKRFSMVVQDGIVKALNVEPDGTGLTCSLAPNIISQL
Take B3: the binding entry is listed as “binds”.

B4: FLOT2 protein (protein, UniProt Q14254 1-428)
chain: MGNCHTVGPNEALVVSGGCCGSDYKQYVFGGWAWAWWCISDTQRISLEIMTLQPRCEDVETAEGVALTVTGVAQVKIMTEKELLAVACEQFLGKNVQDIKNVVLQTLEGHLRSILGTLTVEQIYQDRDQFAKLVREVAAPDVGRMGIEILSFTIKDVYDKVDYLSSLGKTQTAVVQRDADIGVAEAERDAGIREAECKKEMLDVKFMADTKIADSKRAFELQKSAFSEEVNIKTAEAQLAYELQGAREQQKIRQEEIEIEVVQRKKQIAVEAQEILRTDKELIATVRRPAEAEAHRIQQIAEGEKVKQVLLAQAEAEKIRKIGEAEAAVIEAMGKAEAERMKLKAEAYQKYGDAAKMALVLEALPQIAAKIAAPLTKVDEIVVLSGDNSKVTSEVNRLLAELPASVHALTGVDLSKIPLIKKATGVQV
Take B4: the binding entry is “binds”.

B5: EF-hand domain-containing protein D2 (protein, UniProt Q96C19 1-240)
chain: MATDELATKLSRRLQMEGEGGGETPEQPGLNGAAAAAAGAPDEAAEALGSADCELSAKLLRRADLNQGIGEPQSPSRRVFNPYTEFKEFSRKQIKDMEKMFKQYDAGRDGFIDLMELKLMMEKLGAPQTHLGLKNMIKEVDEDFDSKLSFREFLLIFRKAAAGELQEDSGLCVLARLSEIDVSSEGVKGAKSFFEAKVQAINVSSRFEEEIKAEQEERKKQAEEMKQRKAAFKELQSTFK
Consider B5, for which the binding entry is “binds”.

B6: Ribosome-binding protein 1 (protein, UniProt Q9P2E9 1-1410)
chain: MDIYDTQTLGVVVFGGFMVVSAIGIFLVSTFSMKETSYEEALANQRKEMAKTHHQKVEKKKKEKTVEKKGKTKKKEEKPNGKIPDHDPAPNVTVLLREPVRAPAVAVAPTPVQPPIIVAPVATVPAMPQEKLASSPKDKKKKEKKVAKVEPAVSSVVNSIQVLTSKAAILETAPKEVPMVVVPPVGAKGNTPATGTTQGKKAEGTQNQSKKAEGAPNQGRKAEGTPNQGKKTEGTPNQGKKAEGTPNQGKKAEGTPNQGKKAEGAQNQGKKVDTTPNQGKKVEGAPTQGRKAEGAQNQAKKVEGAQNQGKKAEGAQNQGKKGEGAQNQGKKAEGAQNQGKKAEGAQNQGKKAEGAQNQGKKAEGAQNQGKKAEGAQNQGKKAEGAQNQGKKVEGAQNQGKKAEGAQNQGKKAEGAQNQGKKAEGAQNQGKKAEGAQNQGKKAEGAQNQGKKAEGAQNQGKKAEGAQNQGKKVEGAQNQGKKAEGAQNQGKKAEGAQNQGKKAEGAQNQGQKGEGAQNQGKKTEGAQGKKAERSPNQGKKGEGAPIQGKKADSVANQGTKVEGITNQGKKAEGSPSEGKKAEGSPNQGKKADAAANQGKKTESASVQGRNTDVAQSPEAPKQEAPAKKKSGSKKKGEPGPPDADGPLYLPYKTLVSTVGSMVFNEGEAQRLIEILSEKAGIIQDTWHKATQKGDPVAILKRQLEEKEKLLATEQEDAAVAKSKLRELNKEMAAEKAKAAAGEAKVKKQLVAREQEITAVQARMQASYREHVKEVQQLQGKIRTLQEQLENGPNTQLARLQQENSILRDALNQATSQVESKQNAELAKLRQELSKVSKELVEKSEAVRQDEQQRKALEAKAAAFEKQVLQLQASHRESEEALQKRLDEVSRELCHTQSSHASLRADAEKAQEQQQQMAELHSKLQSSEAEVRSKCEELSGLHGQLQEARAENSQLTERIRSIEALLEAGQARDAQDVQASQAEADQQQTRLKELESQVSGLEKEAIELREAVEQQKVKNNDLREKNWKAMEALATAEQACKEKLLSLTQAKEESEKQLCLIEAQTMEALLALLPELSVLAQQNYTEWLQDLKEKGPTLLKHPPAPAEPSSDLASKLREAEETQSTLQAECDQYRSILAETEGMLRDLQKSVEEEEQVWRAKVGAAEEELQKSRVTVKHLEEIVEKLKGELESSDQVREHTSHLEAELEKHMAAASAECQNYAKEVAGLRQLLLESQSQLDAAKSEAQKQSDELALVRQQLSEMKSHVEDGDIAGAPASSPEAPPAEQDPVQLKTQLEWTEAILEDEQTQRQKLTAEFEEAQTSACRLQEELEKLRTAGPLESSETEEASQLKERLEKEKKLTSDLGRAATRLQELLKTTQEQLAREKDTVKKLQEQLEKAEDGSSSKEGTSV
Turning to B6, the binding result is “binds”.

B7: NADH: Ubiquinone Oxidoreductase Complex Assembly Factor 5 (protein, UniProt Q5TEU4 37-345)
chain: GSTSPRTLNIFDRDLKRKQKNWAARQPEPTKFDYLKEEVGSRIADRVYDIPRNFPLALDLGCGRGYIAQYLNKETIGKFFQADIAENALKNSSETEIPTVSVLADEEFLPFKENTFDLVVSSLSLHWVNDLPRALEQIHYILKPDGVFIGAMFGGDTLYELRCSLQLAETEREGGFSPHISPFTAVNDLGHLLGRAGFNTLTVDTDEIQVNYPGMFELMEDLQGMGESNCAWNRKALLHRDTMLAAAAVYREMYRNEDGSVPATYQIYYMIGWKYHESQARPAERGSATVSFGELGKINNLMPPGKKSQ
As for B7, the binding result is given as “binds”.

(Values after publication PMC7778541.)
